The list shows a part of the results, in another mix than the full data. The calls were merged from several studies; some rest on single wells. Some of the results follow.
Columns and labels:
Conditions in all cases: stereoisomer not certain
OR3A3 = test system: T1, OR3A3
T1 sequence (whole entry): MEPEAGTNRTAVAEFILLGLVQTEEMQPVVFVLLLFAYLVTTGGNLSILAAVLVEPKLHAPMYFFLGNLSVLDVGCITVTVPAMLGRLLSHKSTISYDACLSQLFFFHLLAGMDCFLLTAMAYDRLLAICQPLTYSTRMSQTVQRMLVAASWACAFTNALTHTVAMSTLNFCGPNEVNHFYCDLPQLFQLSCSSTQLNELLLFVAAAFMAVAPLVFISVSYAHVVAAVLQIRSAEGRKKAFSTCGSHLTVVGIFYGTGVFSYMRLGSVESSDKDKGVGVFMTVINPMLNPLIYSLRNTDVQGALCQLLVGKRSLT
How it was run: (§1)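 Values were gathered from published papers (main text and supplementary material), with extra details requested from the original authors when needed, and checked for typos and inconsistencies. Each receptor–molecule pair is called responsive (active) if the original authors judged the measured signal statistically different from baseline, and non-responsive (inactive) otherwise. Assay methods varied by source, often transient mammalian cell-line luciferase assays. Recorded details include cell line, G-protein, co-transfected protein and tags.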

Chains of the proteins cited; added tags and fusions are not shown. Where a name states a change or a piece, a line headed by the entry shows the natural chain unless it says otherwise. A line that says so, or that is headed by a name, gives the form on record, which may keep a tag or linker.
UniProt Q8NH37: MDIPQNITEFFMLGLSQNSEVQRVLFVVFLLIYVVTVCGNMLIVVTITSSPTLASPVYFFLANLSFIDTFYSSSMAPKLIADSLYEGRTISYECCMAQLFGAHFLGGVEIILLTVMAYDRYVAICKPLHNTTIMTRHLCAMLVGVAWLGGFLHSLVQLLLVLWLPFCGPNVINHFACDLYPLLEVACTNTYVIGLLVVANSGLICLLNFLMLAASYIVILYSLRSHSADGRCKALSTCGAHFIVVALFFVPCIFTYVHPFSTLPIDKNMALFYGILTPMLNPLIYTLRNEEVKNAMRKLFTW
UniProt Q8NH72: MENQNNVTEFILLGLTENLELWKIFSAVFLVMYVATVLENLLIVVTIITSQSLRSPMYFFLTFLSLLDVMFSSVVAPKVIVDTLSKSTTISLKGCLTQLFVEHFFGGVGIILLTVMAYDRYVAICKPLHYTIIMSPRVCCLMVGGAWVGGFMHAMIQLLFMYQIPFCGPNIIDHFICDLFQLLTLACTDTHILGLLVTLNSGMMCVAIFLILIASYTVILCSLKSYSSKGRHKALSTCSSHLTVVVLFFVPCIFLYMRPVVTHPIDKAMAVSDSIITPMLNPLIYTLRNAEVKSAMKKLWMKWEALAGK
UniProt Q8NGL6: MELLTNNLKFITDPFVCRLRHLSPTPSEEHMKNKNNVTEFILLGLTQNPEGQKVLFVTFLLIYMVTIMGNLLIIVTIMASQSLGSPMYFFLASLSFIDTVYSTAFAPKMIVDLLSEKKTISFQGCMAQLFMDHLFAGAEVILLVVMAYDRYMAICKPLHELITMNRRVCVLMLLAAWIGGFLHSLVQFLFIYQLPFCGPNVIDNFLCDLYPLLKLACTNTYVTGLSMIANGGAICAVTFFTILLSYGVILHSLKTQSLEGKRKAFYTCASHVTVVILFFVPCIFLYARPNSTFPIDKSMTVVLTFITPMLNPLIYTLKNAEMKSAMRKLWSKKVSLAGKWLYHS
UniProt P0C604: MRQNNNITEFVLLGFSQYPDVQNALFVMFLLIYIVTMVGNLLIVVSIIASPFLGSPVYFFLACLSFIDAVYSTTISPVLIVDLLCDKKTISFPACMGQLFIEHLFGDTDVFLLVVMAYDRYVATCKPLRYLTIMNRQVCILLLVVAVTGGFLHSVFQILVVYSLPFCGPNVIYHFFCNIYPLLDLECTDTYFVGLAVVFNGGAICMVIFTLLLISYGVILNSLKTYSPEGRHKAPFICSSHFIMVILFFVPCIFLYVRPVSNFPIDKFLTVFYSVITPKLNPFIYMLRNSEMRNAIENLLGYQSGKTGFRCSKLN
UniProt Q96R67: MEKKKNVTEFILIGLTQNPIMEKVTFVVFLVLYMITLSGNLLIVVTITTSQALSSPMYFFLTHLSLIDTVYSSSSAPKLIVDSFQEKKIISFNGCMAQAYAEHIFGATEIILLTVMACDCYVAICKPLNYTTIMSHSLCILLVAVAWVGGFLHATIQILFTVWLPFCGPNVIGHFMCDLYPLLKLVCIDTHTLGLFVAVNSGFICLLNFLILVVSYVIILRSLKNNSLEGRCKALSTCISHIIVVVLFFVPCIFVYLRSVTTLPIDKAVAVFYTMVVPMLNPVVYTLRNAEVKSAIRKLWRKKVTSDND
UniProt Q8NGM1: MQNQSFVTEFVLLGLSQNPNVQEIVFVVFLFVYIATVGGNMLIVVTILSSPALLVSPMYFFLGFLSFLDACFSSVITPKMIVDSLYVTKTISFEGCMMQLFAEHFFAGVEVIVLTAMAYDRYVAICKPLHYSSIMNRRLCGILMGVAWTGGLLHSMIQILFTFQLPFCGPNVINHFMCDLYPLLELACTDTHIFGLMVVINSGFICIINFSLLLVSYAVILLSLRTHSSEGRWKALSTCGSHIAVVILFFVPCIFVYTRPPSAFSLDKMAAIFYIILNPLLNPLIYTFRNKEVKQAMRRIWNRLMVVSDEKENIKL
UniProt Q8NGL9: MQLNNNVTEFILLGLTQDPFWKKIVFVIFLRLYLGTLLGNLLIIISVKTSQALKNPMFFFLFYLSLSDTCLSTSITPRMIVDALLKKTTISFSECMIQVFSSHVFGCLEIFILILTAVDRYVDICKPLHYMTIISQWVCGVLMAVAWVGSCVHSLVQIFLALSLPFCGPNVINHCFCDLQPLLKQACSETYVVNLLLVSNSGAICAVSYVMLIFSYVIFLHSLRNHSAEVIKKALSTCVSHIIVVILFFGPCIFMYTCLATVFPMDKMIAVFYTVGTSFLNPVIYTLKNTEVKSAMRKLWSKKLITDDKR
UniProt A6NHA9: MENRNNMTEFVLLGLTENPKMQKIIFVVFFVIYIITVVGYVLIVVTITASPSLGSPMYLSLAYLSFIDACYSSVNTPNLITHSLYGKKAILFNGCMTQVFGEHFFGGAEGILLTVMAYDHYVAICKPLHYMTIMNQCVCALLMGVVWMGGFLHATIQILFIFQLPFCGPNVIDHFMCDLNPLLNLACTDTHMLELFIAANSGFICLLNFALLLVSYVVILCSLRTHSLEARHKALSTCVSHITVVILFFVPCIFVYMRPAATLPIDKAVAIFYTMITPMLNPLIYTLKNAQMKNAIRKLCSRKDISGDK
UniProt Q8NGB2: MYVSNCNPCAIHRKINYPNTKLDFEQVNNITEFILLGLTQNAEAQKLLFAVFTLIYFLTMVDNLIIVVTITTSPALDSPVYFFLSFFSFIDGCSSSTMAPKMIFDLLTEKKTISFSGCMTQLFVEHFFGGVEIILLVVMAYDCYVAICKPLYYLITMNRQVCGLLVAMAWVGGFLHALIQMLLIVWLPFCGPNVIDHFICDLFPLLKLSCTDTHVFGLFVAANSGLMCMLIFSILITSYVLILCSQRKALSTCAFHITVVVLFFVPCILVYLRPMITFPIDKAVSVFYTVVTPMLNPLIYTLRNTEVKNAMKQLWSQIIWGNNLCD
OR4C5, as listed by the source: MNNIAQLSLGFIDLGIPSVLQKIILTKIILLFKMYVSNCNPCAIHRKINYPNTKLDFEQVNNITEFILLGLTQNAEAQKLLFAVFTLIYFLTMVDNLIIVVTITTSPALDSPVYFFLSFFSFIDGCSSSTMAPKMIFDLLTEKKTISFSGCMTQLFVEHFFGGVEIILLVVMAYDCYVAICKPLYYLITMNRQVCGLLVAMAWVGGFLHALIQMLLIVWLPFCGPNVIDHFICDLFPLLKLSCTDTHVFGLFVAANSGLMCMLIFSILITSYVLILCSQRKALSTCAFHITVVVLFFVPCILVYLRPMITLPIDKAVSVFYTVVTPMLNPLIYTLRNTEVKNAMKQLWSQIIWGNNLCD
OR4CC, as listed by the source: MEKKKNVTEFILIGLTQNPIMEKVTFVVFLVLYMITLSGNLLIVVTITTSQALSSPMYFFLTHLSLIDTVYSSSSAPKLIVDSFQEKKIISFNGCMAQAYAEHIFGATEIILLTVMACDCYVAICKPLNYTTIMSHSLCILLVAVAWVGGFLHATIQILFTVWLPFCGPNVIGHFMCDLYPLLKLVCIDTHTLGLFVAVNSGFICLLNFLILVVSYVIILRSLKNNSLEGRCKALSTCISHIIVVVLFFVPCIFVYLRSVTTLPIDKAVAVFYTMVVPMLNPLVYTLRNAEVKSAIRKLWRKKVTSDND
OR4C3, as listed by the source: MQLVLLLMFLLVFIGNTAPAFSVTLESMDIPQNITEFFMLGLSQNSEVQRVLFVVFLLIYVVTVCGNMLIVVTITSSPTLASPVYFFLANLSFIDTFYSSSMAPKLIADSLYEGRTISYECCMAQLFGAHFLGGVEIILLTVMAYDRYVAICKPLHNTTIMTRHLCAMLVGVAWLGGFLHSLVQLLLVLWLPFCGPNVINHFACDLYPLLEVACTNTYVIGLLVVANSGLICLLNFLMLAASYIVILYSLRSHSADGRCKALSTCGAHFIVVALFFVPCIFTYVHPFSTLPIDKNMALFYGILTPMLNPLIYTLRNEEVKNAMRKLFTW

OR3A4 = test system: T2, OR3A4
T2 sequence (whole entry): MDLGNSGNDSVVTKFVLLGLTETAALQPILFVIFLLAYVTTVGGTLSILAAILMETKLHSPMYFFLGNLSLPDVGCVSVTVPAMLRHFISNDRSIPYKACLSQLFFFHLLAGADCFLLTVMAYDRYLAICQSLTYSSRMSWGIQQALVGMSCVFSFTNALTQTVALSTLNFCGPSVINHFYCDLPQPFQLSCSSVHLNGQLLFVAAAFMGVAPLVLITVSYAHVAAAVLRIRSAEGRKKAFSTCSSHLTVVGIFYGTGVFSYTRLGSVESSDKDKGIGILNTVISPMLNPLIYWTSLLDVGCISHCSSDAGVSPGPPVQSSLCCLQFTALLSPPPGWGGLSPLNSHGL
How it was run: as §1

OR4A16 (Homo sapiens) = molecular target: T3, OR4A16 (Homo sapiens) (UniProt Q8NH70)
T3 sequence (whole entry): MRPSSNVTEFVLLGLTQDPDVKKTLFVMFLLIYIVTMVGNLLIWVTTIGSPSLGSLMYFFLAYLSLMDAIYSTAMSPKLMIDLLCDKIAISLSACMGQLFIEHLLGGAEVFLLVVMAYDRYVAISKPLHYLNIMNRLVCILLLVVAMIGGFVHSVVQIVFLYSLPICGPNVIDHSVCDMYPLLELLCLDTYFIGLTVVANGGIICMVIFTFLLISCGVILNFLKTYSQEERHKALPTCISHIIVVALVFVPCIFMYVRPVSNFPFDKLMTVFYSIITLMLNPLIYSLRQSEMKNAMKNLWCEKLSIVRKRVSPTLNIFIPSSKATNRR
How it was run: as §1

OR4A4P (Homo sapiens) = molecular target: T4, OR4A4P (Homo sapiens) (UniProt Q8NGN8)
T4 sequence (whole entry): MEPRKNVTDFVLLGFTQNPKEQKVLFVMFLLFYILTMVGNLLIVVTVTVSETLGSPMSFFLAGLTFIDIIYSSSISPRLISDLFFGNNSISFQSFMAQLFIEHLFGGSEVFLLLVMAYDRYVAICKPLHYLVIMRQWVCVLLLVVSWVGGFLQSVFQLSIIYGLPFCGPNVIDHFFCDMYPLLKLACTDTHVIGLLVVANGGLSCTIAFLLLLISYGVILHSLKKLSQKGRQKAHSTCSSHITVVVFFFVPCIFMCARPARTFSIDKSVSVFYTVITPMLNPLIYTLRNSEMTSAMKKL
How it was run: as §1

OR4A5 (Homo sapiens) = molecular target: T5, OR4A5 (Homo sapiens) (UniProt Q8NH83)
T5 sequence (whole entry): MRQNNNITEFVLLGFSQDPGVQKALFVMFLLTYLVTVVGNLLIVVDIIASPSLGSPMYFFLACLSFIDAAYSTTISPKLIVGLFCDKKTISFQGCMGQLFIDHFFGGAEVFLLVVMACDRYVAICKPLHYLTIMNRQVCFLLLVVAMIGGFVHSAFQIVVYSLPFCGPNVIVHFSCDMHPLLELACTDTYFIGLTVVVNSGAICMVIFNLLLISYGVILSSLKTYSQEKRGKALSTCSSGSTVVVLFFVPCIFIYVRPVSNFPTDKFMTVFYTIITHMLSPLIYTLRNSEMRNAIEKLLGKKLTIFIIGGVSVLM
How it was run: as §1

OR4A5 = test system: T6, OR4A5
T6 sequence (whole entry): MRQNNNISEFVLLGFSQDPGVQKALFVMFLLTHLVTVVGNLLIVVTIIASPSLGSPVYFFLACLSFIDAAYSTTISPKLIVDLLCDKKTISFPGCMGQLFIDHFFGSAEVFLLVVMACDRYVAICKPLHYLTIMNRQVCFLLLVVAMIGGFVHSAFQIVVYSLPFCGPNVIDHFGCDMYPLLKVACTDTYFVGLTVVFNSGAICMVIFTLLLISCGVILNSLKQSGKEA
How it was run: as §1

OR4B1 (Homo sapiens) = molecular target: T7, OR4B1 (Homo sapiens) (UniProt Q8NGF8)
T7 sequence (whole entry): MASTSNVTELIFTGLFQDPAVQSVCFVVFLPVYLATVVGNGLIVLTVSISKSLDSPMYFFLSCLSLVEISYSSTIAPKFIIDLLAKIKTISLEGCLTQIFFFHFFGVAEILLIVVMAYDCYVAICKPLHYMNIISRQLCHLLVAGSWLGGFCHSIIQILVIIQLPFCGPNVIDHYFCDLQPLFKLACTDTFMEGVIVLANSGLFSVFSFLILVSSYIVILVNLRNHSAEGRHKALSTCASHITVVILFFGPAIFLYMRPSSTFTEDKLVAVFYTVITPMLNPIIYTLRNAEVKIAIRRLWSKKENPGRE
How it was run: as §1

OR4C11 (Homo sapiens) = molecular target: T8, OR4C11 (Homo sapiens) (UniProt Q6IEV9)
T8 sequence (whole entry): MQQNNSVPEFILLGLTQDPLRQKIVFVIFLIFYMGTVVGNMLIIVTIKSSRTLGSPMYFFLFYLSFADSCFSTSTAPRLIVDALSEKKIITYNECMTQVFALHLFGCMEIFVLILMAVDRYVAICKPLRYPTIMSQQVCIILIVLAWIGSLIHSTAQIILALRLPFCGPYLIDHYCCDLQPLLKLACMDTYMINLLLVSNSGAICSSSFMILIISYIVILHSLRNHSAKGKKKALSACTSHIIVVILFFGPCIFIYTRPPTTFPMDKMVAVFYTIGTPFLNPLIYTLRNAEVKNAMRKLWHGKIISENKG
How it was run: as §1

OR4C3 (Homo sapiens) = OR4C3 (Homo sapiens) (UniProt Q8NH37)
How it was run: as §1

OR4C3 = test system: OR4C3
How it was run: as §1

OR4C5 = test system: OR4C5
How it was run: as §1

OR4C6 (Homo sapiens) = OR4C6 (Homo sapiens) (UniProt Q8NH72)
How it was run: as §1

OR4CC = test system: OR4CC
How it was run: as §1

OR4A15 (Homo sapiens) = OR4A15 (Homo sapiens) (UniProt Q8NGL6)
How it was run: as §1

OR4A8 (Homo sapiens) = OR4A8 (Homo sapiens) (UniProt P0C604)
How it was run: as §1

OR4C12 (Homo sapiens) = OR4C12 (Homo sapiens) (UniProt Q96R67)
How it was run: as §1

OR4C15 (Homo sapiens) = OR4C15 (Homo sapiens) (UniProt Q8NGM1)
How it was run: as §1

OR4C16 (Homo sapiens) = OR4C16 (Homo sapiens) (UniProt Q8NGL9)
How it was run: as §1

OR4C46 (Homo sapiens) = OR4C46 (Homo sapiens) (UniProt A6NHA9)
How it was run: as §1

OR4C5 (Homo sapiens) = OR4C5 (Homo sapiens) (UniProt Q8NGB2)
How it was run: as §1

SMILES	odorant receptor agonist call (OR3A3)	odorant receptor agonist call (OR3A4)	odorant receptor agonist call (OR4A16 (Homo sapiens))	odorant receptor agonist call (OR4A4P (Homo sapiens))	odorant receptor agonist call (OR4A5 (Homo sapiens))	odorant receptor agonist call (OR4A5)	odorant receptor agonist call (OR4B1 (Homo sapiens))	odorant receptor agonist call (OR4C11 (Homo sapiens))	odorant receptor agonist call (OR4C3 (Homo sapiens))	odorant receptor agonist call (OR4C3)	odorant receptor agonist call (OR4C5)	odorant receptor agonist call (OR4C6 (Homo sapiens))	odorant receptor agonist call (OR4CC)	odorant receptor agonist call (OR4A15 (Homo sapiens))	odorant receptor agonist call (OR4A8 (Homo sapiens))	odorant receptor agonist call (OR4C12 (Homo sapiens))	odorant receptor agonist call (OR4C15 (Homo sapiens))	odorant receptor agonist call (OR4C16 (Homo sapiens))	odorant receptor agonist call (OR4C46 (Homo sapiens))	odorant receptor agonist call (OR4C5 (Homo sapiens))
CCCCCC(=O)O	inactive	inactive	inactive	inactive	inactive	inactive	inactive	inactive	inactive	inactive	inactive	inactive	inactive							
CC12CCC(CC1)C(C)(C)O2	inactive	inactive	inactive	inactive	inactive	inactive	inactive	inactive	inactive	inactive	inactive	inactive	inactive							
CC(C)C(=O)O	inactive	inactive	inactive	inactive	inactive	inactive	inactive	inactive	inactive	inactive	inactive	inactive	inactive							
CC=Cc1ccc(O)c(OC)c1	active	active	inactive	inactive	active	inactive	inactive	inactive	inactive	inactive	inactive	active	active							
CCC1(O)C2(C)CCC(C2)C1(C)C (stereo not given)	inactive	inactive	inactive	inactive	inactive	inactive	inactive	inactive	inactive	inactive	inactive	inactive	inactive							
O=C1CCCCCCCCCCCC(=O)OCCO1	inactive	inactive	inactive	inactive	active	inactive	inactive	inactive	inactive	inactive	inactive	inactive	inactive							
c1cnccn1	inactive	inactive	inactive	inactive	inactive	inactive	inactive	inactive	inactive	inactive	inactive	inactive	inactive							
C=CCSCC=C	inactive	inactive	inactive	inactive	inactive	inactive	inactive	inactive	inactive	inactive	inactive	inactive	inactive							
CCCCCCOC(=O)CCC	inactive	inactive	inactive	inactive	inactive	inactive	inactive	inactive	inactive	inactive	inactive	inactive	inactive							
CC12C=CCC1C1CCC3CC(=O)CCC3(C)C1CC2 (stereo not given)	inactive	inactive	inactive		inactive	active		inactive	inactive	inactive	inactive		active	inactive	inactive	inactive	inactive	inactive	inactive	inactive
CC1CCC(C(C)C)C(O)C1 (stereo not given)	inactive	inactive	active	active	inactive	inactive	inactive	inactive	active	inactive	inactive	inactive	inactive							
C=CCc1ccc(OC)c(OC)c1	inactive	inactive	inactive	inactive	inactive	inactive	inactive	inactive	inactive	inactive	inactive	inactive	inactive							

Two compounds from above with just odorant receptor agonist call (OR4A4P (Homo sapiens)) and odorant receptor agonist call (OR4C11 (Homo sapiens)):

| SMILES | odorant receptor agonist call (OR4A4P (Homo sapiens)) | odorant receptor agonist call (OR4C11 (Homo sapiens)) |
| --- | --- | --- |
| CC=Cc1ccc(O)c(OC)c1 | inactive | inactive |
| CCC1(O)C2(C)CCC(C2)C1(C)C (stereo not given) | inactive | inactive |
